Results are given in words; binding and its absence hold for the method and conditions named. Binding seen in cells or lysates may run through a third protein. Some entries that bind do so weakly or less than the wild type. Where a sequence is shown, tags or fusion partners need not be part of it.

Amino acid sequences for entries named in this document (tags omitted).
UniProt Q9SL67: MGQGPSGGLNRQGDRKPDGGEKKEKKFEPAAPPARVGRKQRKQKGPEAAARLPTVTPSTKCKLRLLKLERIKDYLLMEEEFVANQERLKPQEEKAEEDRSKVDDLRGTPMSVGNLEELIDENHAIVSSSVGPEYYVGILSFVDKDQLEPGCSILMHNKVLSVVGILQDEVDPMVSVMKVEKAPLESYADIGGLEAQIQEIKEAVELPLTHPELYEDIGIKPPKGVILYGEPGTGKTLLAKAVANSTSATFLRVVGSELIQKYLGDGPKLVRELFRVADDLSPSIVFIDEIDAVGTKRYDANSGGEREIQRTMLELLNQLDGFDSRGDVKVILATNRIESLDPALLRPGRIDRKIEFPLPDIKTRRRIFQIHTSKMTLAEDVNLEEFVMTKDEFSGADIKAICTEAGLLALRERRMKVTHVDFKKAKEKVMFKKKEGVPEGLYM
UniProt Q9FHY0: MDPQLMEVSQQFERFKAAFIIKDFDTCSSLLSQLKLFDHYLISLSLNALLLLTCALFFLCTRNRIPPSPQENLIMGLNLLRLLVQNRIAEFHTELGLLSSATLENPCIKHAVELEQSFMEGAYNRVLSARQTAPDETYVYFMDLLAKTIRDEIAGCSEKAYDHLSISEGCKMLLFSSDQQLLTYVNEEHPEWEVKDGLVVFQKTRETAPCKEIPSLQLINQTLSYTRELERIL

Our source for the binding values is doi:10.1101/2023.08.10.552853.

T1: NUCLEOPORIN1 (NUP1), BiFC fusion (Arabidopsis) (UniProt Q9CAF4)
T1 sequence: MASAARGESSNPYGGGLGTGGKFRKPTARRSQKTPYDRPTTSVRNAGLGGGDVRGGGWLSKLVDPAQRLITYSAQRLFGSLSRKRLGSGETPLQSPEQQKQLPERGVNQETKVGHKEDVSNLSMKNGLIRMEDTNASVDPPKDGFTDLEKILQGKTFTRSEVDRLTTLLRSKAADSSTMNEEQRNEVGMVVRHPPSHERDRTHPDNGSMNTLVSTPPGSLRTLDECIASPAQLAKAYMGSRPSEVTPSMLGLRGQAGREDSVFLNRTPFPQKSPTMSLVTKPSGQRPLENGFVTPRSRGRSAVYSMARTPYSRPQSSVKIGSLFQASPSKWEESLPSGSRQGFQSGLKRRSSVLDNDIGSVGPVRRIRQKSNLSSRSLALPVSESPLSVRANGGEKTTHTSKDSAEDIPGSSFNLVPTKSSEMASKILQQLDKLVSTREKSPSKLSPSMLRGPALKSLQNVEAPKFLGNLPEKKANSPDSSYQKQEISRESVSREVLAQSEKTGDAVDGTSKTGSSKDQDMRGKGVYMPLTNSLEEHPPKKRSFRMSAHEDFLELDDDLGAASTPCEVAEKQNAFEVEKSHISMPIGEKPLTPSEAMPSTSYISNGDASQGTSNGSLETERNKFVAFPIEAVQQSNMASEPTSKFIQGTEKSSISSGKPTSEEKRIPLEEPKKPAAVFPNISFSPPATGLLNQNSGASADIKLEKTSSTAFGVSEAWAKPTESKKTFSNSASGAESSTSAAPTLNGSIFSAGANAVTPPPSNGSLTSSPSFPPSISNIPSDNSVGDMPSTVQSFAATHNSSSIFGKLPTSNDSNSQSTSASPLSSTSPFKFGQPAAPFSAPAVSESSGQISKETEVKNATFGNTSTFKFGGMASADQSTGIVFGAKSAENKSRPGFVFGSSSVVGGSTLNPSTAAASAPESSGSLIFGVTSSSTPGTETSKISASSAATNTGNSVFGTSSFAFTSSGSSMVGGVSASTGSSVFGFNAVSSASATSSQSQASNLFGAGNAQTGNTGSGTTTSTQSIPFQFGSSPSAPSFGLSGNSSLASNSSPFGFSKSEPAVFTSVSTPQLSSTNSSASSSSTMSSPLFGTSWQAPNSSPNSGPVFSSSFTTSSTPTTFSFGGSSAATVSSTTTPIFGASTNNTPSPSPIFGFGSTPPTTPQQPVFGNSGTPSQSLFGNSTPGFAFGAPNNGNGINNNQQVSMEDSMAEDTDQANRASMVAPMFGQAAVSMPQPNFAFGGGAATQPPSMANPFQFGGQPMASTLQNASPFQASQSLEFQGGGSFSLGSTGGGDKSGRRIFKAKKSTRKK

B1: RPN3a, BiFC fusion (protein, UniProt Q9LNU4 1-488)
chain: MTQDVEMKDNNTPSQSIISSSTSTMQNLKEIAALIDTGSYTKEVRRIARAVRLTIGLRQKLTGSVLSSFLDFALVPGSEAHSRLSSFVPKGDEHDMEVDTASSATQAAPSKHLPAELEIYCYFIVLLFLIDQKKYNEAKACSSASIARLKNVNRRTIDVIASRLYFYYSLSYEQTGDLAEIRGTLLALHHSATLRHDELGQETLLNLLLRNYLHYNLYDQAEKLRSKAPRFEAHSNQQFCRYLFYLGKIRTIQLEYTDAKESLLQAARKAPIAALGFRIQCNKWAILVRLLLGEIPERSIFTQKGMEKALRPYFELTNAVRIGDLELFRTVQEKFLDTFAQDRTHNLIVRLRHNVIRTGLRNISISYSRISLPDVAKKLRLNSENPVADAESIVAKAIRDGAIDATIDHKNGCMVSKETGDIYSTNEPQTAFNSRIAFCLNMHNEAVRALRFPPNTHKEKESDEKRRERKQQEEELAKHMAEEDDDDF
B2: RPN12a, BiFC fusion (protein, UniProt Q9SGW3 1-267)
chain: MDPQLTEVSQQFERFKAAFARKDYNTCSDLLSQLKVLLTKFTSLPPLFENSPNAAKELTIARDIYEHAVVLSVKTEDQDAFERDFFQLKPYYVDARNRIPQSPQENLILGLNLLRLLVQNRIAEFHTELELLSSATLEDPCIKHAVELEQSFMEGAYNRVLSARQTAPDATYVYFMDLLAKTIRDEIAGCSEKAYDYVSISDARQMLLFSSDQELLTYVTDEHPEWEVKEGFVVFQKAKETAPCKEIPSLQLINQTLSYARELERIV
B3: RPN10, BiFC fusion (protein, UniProt P55034 1-386)
chain: MVLEATMICIDNSEWMRNGDYSPSRLQAQTEAVNLLCGAKTQSNPENTVGILTMAGKGVRVLTTPTSDLGKILACMHGLDVGGEINLTAAIQIAQLALKHRQNKNQRQRIIVFAGSPIKYEKKALEIVGKRLKKNSVSLDIVNFGEDDDEEKPQKLEALLTAVNNNDGSHIVHVPSGANALSDVLLSTPVFTGDEGASGYVSAAAAAAAAGGDFDFGVDPNIDPELALALRVSMEEERARQEAAAKKAADEAGQKDKDGDTASASQETVARTTDKNAEPMDEDSALLDQAIAMSVGDVNMSEAADEDQDLALALQMSMSGEESSEATGAGNNLLGNQAFISSVLSSLPGVDPNDPAVKELLASLPDESKRTEEEESSSKKGEDEKK

This assay has as its target T1, NUCLEOPORIN1 (NUP1), BiFC fusion (Arabidopsis). The experiment in a line: split reporter.
As to “RPT2B, BiFC fusion (from UniProt Q9SL67 1-443)”, the binding result is recorded as “binds”.

As to “RPN12b, BiFC fusion (from UniProt Q9FHY0 1-233)”, the binding result is “binds”.

In the case of B1, the binding entry is “binds”.

Regarding B2, the binding entry is listed as “binds”.

In the case of B3, the binding entry is on record as “binds”.
